Laboratory results published in article PMC8044098.

The chains behind the UniProt entries cited, without tags or fusion partners.
UniProt Q9Z0R4: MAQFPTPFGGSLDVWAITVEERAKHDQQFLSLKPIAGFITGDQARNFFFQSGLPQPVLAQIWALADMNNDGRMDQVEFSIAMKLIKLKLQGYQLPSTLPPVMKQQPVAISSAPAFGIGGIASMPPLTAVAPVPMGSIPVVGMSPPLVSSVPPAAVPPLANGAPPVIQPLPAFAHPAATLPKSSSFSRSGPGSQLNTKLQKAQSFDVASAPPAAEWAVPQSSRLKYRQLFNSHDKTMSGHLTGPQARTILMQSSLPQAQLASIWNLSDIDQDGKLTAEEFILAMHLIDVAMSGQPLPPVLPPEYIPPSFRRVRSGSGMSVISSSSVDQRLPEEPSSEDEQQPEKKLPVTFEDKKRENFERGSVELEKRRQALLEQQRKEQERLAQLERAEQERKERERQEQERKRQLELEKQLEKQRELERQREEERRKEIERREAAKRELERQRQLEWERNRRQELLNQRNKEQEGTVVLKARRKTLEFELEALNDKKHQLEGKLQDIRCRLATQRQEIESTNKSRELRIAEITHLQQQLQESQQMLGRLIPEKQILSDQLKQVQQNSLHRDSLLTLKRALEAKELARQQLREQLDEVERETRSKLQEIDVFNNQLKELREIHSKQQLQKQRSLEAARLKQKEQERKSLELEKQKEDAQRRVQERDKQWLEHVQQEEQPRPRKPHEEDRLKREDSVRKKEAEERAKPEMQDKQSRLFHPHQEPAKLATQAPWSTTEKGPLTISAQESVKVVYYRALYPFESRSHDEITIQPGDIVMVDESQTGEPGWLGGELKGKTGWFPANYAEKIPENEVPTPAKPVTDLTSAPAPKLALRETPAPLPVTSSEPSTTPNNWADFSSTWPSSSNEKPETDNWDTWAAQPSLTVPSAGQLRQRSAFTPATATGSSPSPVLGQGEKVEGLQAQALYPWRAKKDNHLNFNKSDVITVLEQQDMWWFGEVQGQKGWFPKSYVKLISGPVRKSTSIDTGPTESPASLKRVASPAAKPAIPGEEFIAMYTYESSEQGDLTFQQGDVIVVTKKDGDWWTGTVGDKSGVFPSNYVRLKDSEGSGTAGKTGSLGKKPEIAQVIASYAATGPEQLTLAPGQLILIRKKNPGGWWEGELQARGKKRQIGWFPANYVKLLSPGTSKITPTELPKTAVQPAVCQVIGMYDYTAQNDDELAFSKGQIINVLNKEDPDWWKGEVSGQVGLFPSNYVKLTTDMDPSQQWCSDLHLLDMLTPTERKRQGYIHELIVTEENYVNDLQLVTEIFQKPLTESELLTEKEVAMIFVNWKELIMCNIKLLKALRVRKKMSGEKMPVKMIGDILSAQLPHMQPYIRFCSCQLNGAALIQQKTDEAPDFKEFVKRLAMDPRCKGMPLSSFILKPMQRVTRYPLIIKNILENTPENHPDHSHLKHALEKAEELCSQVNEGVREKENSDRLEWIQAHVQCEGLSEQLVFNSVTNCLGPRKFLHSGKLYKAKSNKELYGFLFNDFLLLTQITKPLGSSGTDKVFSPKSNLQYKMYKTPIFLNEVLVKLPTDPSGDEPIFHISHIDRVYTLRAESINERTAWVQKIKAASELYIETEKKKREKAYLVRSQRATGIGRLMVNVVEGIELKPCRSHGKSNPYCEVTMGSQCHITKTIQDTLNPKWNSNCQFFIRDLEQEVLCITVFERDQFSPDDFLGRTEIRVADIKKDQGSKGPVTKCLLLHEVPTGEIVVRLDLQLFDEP

Target: intersectin1 (ITSN1), brain long form ITSN1L (mouse (endogenous in mouse brain synaptic CCV)) (UniProt Q9Z0R4)
Test: co-IP; CCV coats of canCCV, wt stable CCV and ko stCCV (wt and AP1/σ1B ko mice) solubilised by pH shift 6.4 to 8.0, vesicles removed at 100.000×g, pH set back to 6.4; 5 μg anti-ITSN1 antibody overnight at 4 °C, Protein G sepharose beads, three washes at pH 6.4, elution with non-reducing SDS-PAGE loading buffer, semi-quantitative western blot

- binding: binds
Substance: synaptojanin1 (from UniProt Q8CHC4-2)

No constants are given. Whether binding was seen depends on the method and setting. In cells and extracts the contact can be indirect. Binding calls can cover weak binding; strength is not graded here.
